PubChem BioAssay AID602196, INSERM, 2012

Assay: 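Genes whose knock-down alters cisplatin killing of lung cancer cells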
Cell system: human A549 lung cancer cells
Reagents: siRNA pair against human genes
Duration: 48 h transfection before cisplatin; time from cisplatin to read-out not stated
Conditions: cisplatin at a dose killing half of control-siRNA cells; exact dose and duration not given
Read-out: 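Shift in cisplatin death relative to control siRNA, from -50 (all cells die) to +50 (no cells die); siRNAs harmful on their own scored 0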
Direction: two-siRNA summed score (-2 to +2): higher = both siRNAs protect from cisplatin killing; -2 means both sensitise; mean protection from cisplatin (shift in death): higher = protection from cisplatin killing
Active means: 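Each siRNA scores 0 if harmful alone by LDH or WST-1, otherwise +1 if it reduces and -1 if it increases cisplatin killing; a gene is active when both siRNAs agree (sum +2 or -2)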
Calls: active = both siRNAs shift cisplatin killing the same way; inactive = no consistent shift, or siRNA harmful alone
The deposit covers about 23,000 reagents; this is a random part of them. Over the whole deposit, 455 (2%) were called active. 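Active includes both protection and sensitisation; some change values fall well beyond the stated -50 to +50 range.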 Further read-outs or replicates are left out here. The record does not give: the amount of reagent.

LINC03043: two-siRNA summed score (-2 to +2) = 0; mean protection from cisplatin (shift in death) (%) = 6.1; Outcome = inactive
LRRTM1: two-siRNA summed score (-2 to +2) = 0; mean protection from cisplatin (shift in death) (%) = 7.5; Outcome = inactive
SALL2: two-siRNA summed score (-2 to +2) = 1; mean protection from cisplatin (shift in death) (%) = 18.1; Outcome = inactive
OR5AN1: two-siRNA summed score (-2 to +2) = 0; mean protection from cisplatin (shift in death) (%) = 3.6; Outcome = inactive
LOC401732: two-siRNA summed score (-2 to +2) = 0; mean protection from cisplatin (shift in death) (%) = 7.6; Outcome = inactive
LINC01376: two-siRNA summed score (-2 to +2) = 0; mean protection from cisplatin (shift in death) (%) = 7.5; Outcome = inactive
LOC390944: two-siRNA summed score (-2 to +2) = 1; mean protection from cisplatin (shift in death) (%) = 6.3; Outcome = inactive

Next part; the last 2 above are carried over.
LINC01376: two-siRNA summed score (-2 to +2) = 0; mean protection from cisplatin (shift in death) (%) = 7.5; Outcome = inactive
LOC390944: two-siRNA summed score (-2 to +2) = 1; mean protection from cisplatin (shift in death) (%) = 6.3; Outcome = inactive
MVP: two-siRNA summed score (-2 to +2) = 0; mean protection from cisplatin (shift in death) (%) = -4.2; Outcome = inactive
PAH: two-siRNA summed score (-2 to +2) = 0; mean protection from cisplatin (shift in death) (%) = -7.8; Outcome = inactive
PRELID1P5: two-siRNA summed score (-2 to +2) = 0; mean protection from cisplatin (shift in death) (%) = 5.3; Outcome = inactive
SNUPN: two-siRNA summed score (-2 to +2) = 0; mean protection from cisplatin (shift in death) (%) = 1.9; Outcome = inactive
LOC402504: two-siRNA summed score (-2 to +2) = 0; mean protection from cisplatin (shift in death) (%) = 4.6; Outcome = inactive
